This is an account of results in paper PMC5814057, “Folic acid derived-P5779 mimetics regulate DAMP-mediated inflammation through disruption of HMGB1:TLR4:MD-2 axes” (PLoS ONE, 2018).

By UniProt entry, the sequences of proteins in these tests, tags left out.
UniProt P63159: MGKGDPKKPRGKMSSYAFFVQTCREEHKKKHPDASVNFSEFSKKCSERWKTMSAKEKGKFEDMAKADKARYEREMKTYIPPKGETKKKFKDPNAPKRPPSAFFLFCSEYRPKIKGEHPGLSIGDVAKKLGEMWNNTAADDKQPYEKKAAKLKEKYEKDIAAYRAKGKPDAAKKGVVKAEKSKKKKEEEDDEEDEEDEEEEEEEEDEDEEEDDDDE

Results are given in words; binding and its absence hold for the method and conditions named. Some binding calls cover weakened binding; strength is not graded here.

This assay has as its target Recombinant HMGB1 (High mobility group box 1), wild type, disulfide form (UniProt P63159). In words: SPR; inhibition assay: wild type HMGB1 immobilised on CM5 to 400 RU; MD-2 (0.5 uM) incubated 15 min with or without inhibitor, injected at 30 uL/min for 60 s; 1X PBS + 0.05% Tween 20; both purified. For orientation: In SPR one partner is held on a chip, and binding of the other changes the refractive index at the surface.

B1: Recombinant human MD2 protein (R&D 1787-MD) (protein, UniProt Q9Y6Y9 19-160)
chain: QKQYWVCNSSDASISYTYCDKMQYPISINVNPCIELKRSKGLLHIFYIPRRDLKQLYFNLYITVNTMNLPKRKEVICRGSDDDYSFCRALKGETVNTTISFSFKGIKFSKGKYKCVVEAISGSPEEMLFCLEFVILHQPNSN
As for B1, the binding result is “binds”.
